Where two headings read alike, the source gives them in different places. These are yes or no findings as the source states them, for the method shown. In cells and extracts the contact can be indirect. These calls come from enrichment with a bait or labelling near it, and not all partners need be listed. For part of these data: No binding means not detected with the bait. For part of these data: Sequences can lack the tags named with a protein.
T1: CENP-C::protein A (Drosophila melanogaster) (UniProt Q9VHP9)
T1 sequence: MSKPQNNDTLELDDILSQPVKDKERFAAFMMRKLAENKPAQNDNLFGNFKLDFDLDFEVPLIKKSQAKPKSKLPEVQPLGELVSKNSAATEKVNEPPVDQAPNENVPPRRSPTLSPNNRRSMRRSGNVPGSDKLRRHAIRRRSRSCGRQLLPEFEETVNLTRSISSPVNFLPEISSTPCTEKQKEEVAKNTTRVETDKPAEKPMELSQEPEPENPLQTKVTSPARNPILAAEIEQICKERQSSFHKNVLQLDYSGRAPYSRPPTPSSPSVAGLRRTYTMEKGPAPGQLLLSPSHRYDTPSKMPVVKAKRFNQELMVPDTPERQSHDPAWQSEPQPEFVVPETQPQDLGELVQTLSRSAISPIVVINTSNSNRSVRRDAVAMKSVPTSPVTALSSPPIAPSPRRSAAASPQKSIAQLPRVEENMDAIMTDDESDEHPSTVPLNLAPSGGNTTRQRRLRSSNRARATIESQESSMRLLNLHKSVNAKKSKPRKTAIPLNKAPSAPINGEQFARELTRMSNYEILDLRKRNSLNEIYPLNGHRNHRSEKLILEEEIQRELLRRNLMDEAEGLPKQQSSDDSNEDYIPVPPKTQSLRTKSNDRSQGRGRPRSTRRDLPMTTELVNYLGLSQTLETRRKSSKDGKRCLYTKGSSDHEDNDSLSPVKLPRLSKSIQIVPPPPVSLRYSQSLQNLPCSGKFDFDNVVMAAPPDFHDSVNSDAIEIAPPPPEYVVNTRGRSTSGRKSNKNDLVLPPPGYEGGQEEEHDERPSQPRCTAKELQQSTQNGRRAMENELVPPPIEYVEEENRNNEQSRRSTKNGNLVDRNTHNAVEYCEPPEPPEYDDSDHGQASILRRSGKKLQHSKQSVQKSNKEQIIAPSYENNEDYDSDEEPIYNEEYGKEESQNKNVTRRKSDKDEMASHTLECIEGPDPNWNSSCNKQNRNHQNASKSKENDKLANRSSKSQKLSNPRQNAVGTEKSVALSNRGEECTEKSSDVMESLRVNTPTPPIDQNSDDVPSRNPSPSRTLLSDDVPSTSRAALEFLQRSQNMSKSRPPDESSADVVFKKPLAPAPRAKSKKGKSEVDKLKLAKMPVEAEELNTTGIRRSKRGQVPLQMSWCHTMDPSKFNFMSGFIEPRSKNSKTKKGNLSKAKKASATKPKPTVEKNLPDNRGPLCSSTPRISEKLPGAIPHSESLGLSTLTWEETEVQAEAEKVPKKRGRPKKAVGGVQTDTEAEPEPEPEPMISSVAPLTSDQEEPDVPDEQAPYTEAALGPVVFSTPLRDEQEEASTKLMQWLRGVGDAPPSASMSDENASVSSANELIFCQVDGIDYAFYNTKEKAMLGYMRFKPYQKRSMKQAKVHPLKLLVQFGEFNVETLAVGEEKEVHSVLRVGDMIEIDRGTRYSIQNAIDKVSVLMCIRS

Sequences of proteins named here, by UniProt entry; tags and fusion partners are left off. A change or cut given only in a name is not applied to a line headed by its entry.
UniProt Q9VFS5: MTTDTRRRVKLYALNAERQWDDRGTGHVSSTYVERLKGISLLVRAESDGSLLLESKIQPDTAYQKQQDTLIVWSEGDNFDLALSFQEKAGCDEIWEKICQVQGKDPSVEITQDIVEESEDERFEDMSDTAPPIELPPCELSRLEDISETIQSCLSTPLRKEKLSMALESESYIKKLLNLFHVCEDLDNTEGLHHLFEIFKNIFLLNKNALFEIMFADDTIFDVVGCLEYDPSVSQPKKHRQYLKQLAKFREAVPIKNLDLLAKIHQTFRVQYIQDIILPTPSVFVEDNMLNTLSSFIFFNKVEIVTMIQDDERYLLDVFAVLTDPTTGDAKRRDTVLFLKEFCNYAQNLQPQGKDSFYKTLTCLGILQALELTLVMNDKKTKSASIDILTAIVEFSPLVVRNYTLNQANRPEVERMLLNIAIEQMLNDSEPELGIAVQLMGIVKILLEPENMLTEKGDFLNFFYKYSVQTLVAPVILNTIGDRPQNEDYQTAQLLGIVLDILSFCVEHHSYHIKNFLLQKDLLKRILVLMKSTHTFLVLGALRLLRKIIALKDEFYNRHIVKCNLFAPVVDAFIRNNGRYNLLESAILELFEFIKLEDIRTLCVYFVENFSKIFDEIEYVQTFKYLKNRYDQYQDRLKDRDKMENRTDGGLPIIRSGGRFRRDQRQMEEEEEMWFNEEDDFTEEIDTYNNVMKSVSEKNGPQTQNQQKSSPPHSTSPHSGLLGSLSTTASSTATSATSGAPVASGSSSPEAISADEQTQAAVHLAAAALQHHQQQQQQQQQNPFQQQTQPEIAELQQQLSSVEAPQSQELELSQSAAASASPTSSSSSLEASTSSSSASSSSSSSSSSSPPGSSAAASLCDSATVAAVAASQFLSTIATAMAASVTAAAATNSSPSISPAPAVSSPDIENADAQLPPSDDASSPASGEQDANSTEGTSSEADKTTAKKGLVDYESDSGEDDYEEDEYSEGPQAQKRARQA
UniProt P92177: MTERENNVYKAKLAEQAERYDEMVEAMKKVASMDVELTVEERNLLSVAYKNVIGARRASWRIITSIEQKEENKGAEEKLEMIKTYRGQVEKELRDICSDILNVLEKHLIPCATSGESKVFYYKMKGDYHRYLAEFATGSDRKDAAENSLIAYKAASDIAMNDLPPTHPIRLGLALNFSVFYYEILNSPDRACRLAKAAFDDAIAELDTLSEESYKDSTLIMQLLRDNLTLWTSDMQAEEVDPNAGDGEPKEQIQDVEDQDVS
UniProt Q8IRG6: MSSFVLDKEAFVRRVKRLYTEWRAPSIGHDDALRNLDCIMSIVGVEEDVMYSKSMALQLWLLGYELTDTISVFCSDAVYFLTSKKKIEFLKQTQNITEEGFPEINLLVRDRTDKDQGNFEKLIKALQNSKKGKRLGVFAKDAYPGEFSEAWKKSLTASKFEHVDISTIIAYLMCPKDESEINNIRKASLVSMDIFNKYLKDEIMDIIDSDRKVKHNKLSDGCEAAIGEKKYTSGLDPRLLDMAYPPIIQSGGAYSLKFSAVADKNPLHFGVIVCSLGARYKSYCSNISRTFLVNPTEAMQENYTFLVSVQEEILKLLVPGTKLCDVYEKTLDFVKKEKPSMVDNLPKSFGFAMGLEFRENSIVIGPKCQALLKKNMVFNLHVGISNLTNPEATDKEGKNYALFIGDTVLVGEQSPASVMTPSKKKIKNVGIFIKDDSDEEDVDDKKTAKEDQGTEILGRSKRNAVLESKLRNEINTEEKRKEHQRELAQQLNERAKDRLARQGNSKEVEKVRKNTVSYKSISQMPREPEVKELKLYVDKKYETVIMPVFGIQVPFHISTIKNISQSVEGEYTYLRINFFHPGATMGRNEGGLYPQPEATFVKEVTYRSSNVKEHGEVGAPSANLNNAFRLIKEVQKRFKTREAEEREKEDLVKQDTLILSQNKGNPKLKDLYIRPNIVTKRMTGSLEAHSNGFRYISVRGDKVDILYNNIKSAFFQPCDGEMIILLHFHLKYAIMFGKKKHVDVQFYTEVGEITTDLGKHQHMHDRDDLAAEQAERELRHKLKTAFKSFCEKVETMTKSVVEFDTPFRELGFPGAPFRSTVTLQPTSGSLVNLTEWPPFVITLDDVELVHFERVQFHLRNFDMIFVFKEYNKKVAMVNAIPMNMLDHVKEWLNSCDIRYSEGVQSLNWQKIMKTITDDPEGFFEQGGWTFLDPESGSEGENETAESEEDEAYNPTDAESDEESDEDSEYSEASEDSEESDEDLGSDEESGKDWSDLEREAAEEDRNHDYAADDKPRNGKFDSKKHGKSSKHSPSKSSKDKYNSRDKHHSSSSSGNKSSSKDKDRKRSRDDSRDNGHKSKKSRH
UniProt Q9V6Q2: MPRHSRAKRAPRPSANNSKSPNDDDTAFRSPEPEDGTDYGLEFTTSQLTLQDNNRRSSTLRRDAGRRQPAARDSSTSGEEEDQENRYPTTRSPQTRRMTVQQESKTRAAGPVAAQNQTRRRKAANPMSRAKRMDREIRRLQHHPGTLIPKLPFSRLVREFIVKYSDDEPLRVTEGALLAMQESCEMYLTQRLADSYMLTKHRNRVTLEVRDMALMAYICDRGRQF

T2: FLAG::CENP-C^ΔFIM (Drosophila melanogaster) (UniProt Q9VHP9)
T2 sequence: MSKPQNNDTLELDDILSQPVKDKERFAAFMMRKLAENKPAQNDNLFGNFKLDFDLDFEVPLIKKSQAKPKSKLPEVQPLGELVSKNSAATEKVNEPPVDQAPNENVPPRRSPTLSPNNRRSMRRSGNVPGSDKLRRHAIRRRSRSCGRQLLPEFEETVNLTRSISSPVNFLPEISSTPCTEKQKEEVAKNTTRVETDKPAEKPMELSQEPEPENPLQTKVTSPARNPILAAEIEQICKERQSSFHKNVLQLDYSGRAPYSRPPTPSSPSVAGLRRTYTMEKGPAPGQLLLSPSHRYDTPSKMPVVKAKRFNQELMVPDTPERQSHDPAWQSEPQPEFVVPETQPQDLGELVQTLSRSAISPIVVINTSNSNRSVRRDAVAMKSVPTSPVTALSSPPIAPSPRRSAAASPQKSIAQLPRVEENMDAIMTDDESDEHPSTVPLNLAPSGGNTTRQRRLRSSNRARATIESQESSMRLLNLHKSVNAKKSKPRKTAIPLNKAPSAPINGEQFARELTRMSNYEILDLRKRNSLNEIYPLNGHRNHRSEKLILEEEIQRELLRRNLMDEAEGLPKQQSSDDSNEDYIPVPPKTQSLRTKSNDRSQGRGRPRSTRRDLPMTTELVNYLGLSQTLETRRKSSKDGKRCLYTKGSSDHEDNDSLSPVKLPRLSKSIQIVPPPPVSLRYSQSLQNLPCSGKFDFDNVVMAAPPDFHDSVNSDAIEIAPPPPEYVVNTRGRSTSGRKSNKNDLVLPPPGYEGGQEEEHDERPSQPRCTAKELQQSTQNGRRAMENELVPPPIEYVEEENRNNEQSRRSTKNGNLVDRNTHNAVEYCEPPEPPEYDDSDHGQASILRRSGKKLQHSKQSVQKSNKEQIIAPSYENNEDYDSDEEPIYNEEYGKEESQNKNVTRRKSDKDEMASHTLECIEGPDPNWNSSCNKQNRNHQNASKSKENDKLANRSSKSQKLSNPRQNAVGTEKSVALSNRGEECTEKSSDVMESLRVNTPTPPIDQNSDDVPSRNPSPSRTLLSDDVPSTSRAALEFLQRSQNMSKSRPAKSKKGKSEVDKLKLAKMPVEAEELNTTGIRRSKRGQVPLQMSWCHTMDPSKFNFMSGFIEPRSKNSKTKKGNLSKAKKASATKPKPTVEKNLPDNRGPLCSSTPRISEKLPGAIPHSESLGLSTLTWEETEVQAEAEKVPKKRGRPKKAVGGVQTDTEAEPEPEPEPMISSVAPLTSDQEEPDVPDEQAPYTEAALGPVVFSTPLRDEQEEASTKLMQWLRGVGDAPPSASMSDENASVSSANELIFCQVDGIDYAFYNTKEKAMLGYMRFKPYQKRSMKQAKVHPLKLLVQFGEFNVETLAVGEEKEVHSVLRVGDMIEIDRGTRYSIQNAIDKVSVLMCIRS


How the values were obtained:
[1] = target: T1, CENP-C::protein A (Drosophila melanogaster); assay: affinity purification with mass spectrometry; protein A-tagged bait from ~10^9 D.Mel-2 cells, lysate in extraction buffer (50 mM HEPES pH 7.5, 0.5% NP-40), DNase I, rabbit IgG Dynabeads 2 h 4 °C, LC-MS/MS, Mascot
[2] = target: protein A-tagged Flfl expressed in Drosophila syncytial embryos (Drosophila melanogaster) (UniProt Q9VFS5); assay: affinity purification with mass spectrometry; protein A-tagged bait from 1 g transgenic Drosophila syncytial embryos, extraction buffer, DNase I, rabbit IgG Dynabeads, LC-MS/MS
[3] = target: T2, FLAG::CENP-C^ΔFIM (Drosophila melanogaster); assay: affinity purification with mass spectrometry; FLAG::CENP-C^WT or FLAG::CENP-C^ΔFIM purified from ~10^9 stably transfected D.Mel-2 cells on anti-FLAG M2 magnetic beads; mass spectrometry
[4] = target: Protein A::Falafel (Drosophila melanogaster) (UniProt Q9VFS5); assay: affinity purification with mass spectrometry; protein A-tagged bait from ~10^9 D.Mel-2 cells, lysate in extraction buffer (50 mM HEPES pH 7.5, 0.5% NP-40), DNase I, rabbit IgG Dynabeads 2 h 4 °C, LC-MS/MS, Mascot
[5] = target: T1, CENP-C::protein A (Drosophila melanogaster); assay: as above; remark: listed apart in the source

Row | Molecule | binding [1] | binding [5] | further results
1 | 14-3-3epsilon (from UniProt P92177 1-262) | binds | – | –
2 | Dre4 (FACT complex) (from UniProt Q8IRG6 1-1083) | binds | – | –
3 | PP4c, endogenous (enzyme, UniProt O76932 1-307) MSDYSDLDRQIEQLKRCEIIKENEVKALCAKAREILVEEGNVQRVDSPVTVCGDIHGQFYDLKELFKVGGDVPEKNYLFMGDFVDRGYYSVETFLLLLALKVRYPDRITLIRGNHESRQITQVYGFYDECLRKYGSTAVWRYCTEIFDYLSLSAIIDGKIFCVHGGLSPSIQYLDQIRSIDRKQEVPHDGPMCDLLWSDPEDQTGWGVSPRGAGYLFGSDVVSQFNRTNDIDMICRAHQLVMEGFKWHFNETVLTVWSAPNYCYRCGNVAAILELNEYLHRDFVIFEAAPQESRGIPSKKPQADYFL | – | – | binding [2]: binds; binding [3]: no binding; binding [4]: binds
4 | Topoisomerase2 (enzyme, UniProt P15348 1-1447) MENGNKALSIEQMYQKKSQLEHILLRPDSYIGSVEFTKELMWVYDNSQNRMVQKEISFVPGLYKIFDEILVNAADNKQRDKSMNTIKIDIDPERNMVSVWNNGQGIPVTMHKEQKMYVPTMIFGHLLTSSNYNDDEKKVTGGRNGYGAKLCNIFSTSFTVETATREYKKSFKQTWGNNMGKASDVQIKDFNGTDYTRITFSPDLAKFKMDRLDEDIVALMSRRAYDVAASSKGVSVFLNGNKLGVRNFKDYIDLHIKNTDDDSGPPIKIVHEVANERWEVACCPSDRGFQQVSFVNSIATYKGGRHVDHVVDNLIKQLLEVLKKKNKGGINIKPFQVRNHLWVFVNCLIENPTFDSQTKENMTLQQKGFGSKCTLSEKFINNMSKSGIVESVLAWAKFKAQNDIAKTGGRKSSKIKGIPKLEDANEAGGKNSIKCTLILTEGDSAKSLAVSGLGVIGRDLYGVFPLRGKLLNVREANFKQLSENAEINNLCKIIGLQYKKKYLTEDDLKTLRYGKVMIMTDQDQDGSHIKGLLINFIHTNWPELLRLPFLEEFITPIVKATKKNEELSFYSLPEFEEWKNDTANHHTYNIKYYKGLGTSTSKEAKEYFQDMDRHRILFKYDGSVDDESIVMAFSKKHIESRKVWLTNHMDEVKRRKELGLPERYLYTKGTKSITYADFINLELVLFSNADNERSIPSLVDGLKPGQRKVMFTCFKRNDKREVKVAQLSGSVAEMSAYHHGEVSLQMTIVNLAQNFVGANNINLLEPRGQFGTRLSGGKDCASARYIFTIMSPLTRLIYHPLDDPLLDYQVDDGQKIEPLWYLPIIPMVLVNGAEGIGTGWSTKISNYNPREIMKNLRKMINGQEPSVMHPWYKNFLGRMEYVSDGRYIQTGNIQILSGNRLEISELPVGVWTQNYKENVLEPLSNGTEKVKGIISEYREYHTDTTVRFVISFAPGEFERIHAEEGGFYRVFKLTTTLSTNQMHAFDQNNCLRRFPTAIDILKEYYKLRREYYARRRDFLVGQLTAQADRLSDQARFILEKCEKKLVVENKQRKAMCDELLKRGYRPDPVKEWQRRIKMEDAEQADEEDEEEEEAAPSVSSKAKKEKEVDPEKAFKKLTDVKKFDYLLGMSMWMLTEEKKNELLKQRDTKLSELESLRKKTPEMLWLDDLDALESKLNEVEEKERAEEQGINLKTAKALKGQKSASAKGRKVKSMGGGAGAGDVFPDPDGEPVEFKITEEIIKKMAAAAKVAQAAKEPKKPKEPKEPKVKKEPKGKQIKAEPDASGDEVDEFDAMVEGGSKTSPKAKKAVVKKEPGEKKPRQKKENGGGLKQSKIDFSKAKAKKSDDDVEEVTPRAERPGRRQASKKIDYSSLFSDEEEDGGNVGSDDDGNASDDDSPKRPAKRGREDESSGGAKKKAPPKKRRAVIESDDDDIEIDEDDDDDSDFNC | – | binds | –
5 | SSRP1 (FACT complex) (protein, UniProt Q05344 1-723) MTDSLEYNDINAEVRGVLCSGRLKMTEQNIIFKNTKTGKVEQISAEDIDLINSQKFVGTWGLRVFTKGGVLHRFTGFRDSEHEKLGKFIKAAYSQEMVEKEMCVKGWNWGTARFMGSVLSFDKESKTIFEVPLSHVSQCVTGKNEVTLEFHQNDDAPVGLLEMRFHIPAVESAEEDPVDKFHQNVMSKASVISASGESIAIFREIQILTPRGRYDIKIFSTFFQLHGKTFDYKIPMDSVLRLFMLPHKDSRQMFFVLSLDPPIKQGQTRYHYLVLLFAPDEETTIELPFSEAELRDKYEGKLEKEISGPVYEVMGKVMKVLIGRKITGPGNFIGHSGTAAVGCSFKAAAGYLYPLERGFIYIHKPPLHIRFEEISSVNFARSGGSTRSFDFEVTLKNGTVHIFSSIEKEEYAKLFDYITQKKLHVSNMGKDKSGYKDVDFGDSDNENEPDAYLARLKAEAREKEEDDDDGDSDEESTDEDFKPNENESDVAEEYDSNVESDSDDDSDASGGGGDSDGAKKKKEKKSEKKEKKEKKHKEKERTKKPSKKKKDSGKPKRATTAFMLWLNDTRESIKRENPGIKVTEIAKKGGEMWKELKDKSKWEDAAAKDKQRYHDEMRNYKPEAGGDSDNEKGGKSSKKRKTEPSPSKKANTSGSGFKSKEYISDDDSTSSDDEKDNEPAKKKSKPPSDGDAKKKKAKSESEPEESEEDSNASDEDEEDEASD | – | binds | –

Now from value to molecule, other results behind:

Row | binding [1] | binding [5] | Molecule | further results
6 | binds | – | CENP-A/CID (from UniProt Q9V6Q2 1-225) (other; other documents disagree on this pair) | –
7 | – | binds | 14-3-3zeta (protein, UniProt P29310 1-248) MSTVDKEELVQKAKLAEQSERYDDMAQAMKSVTETGVELSNEERNLLSVAYKNVVGARRSSWRVISSIEQKTEASARKQQLAREYRERVEKELREICYEVLGLLDKYLIPKASNPESKVFYLKMKGDYYRYLAEVATGDARNTVVDDSQTAYQDAFDISKGKMQPTHPIRLGLALNFSVFYYEILNSPDKACQLAKQAFDDAIAELDTLNEDSYKDSTLIMQLLRDNLTLWTSDTQGDEAEPQEGGDN | –

— paper PMC4354016, “Centromeric binding and activity of Protein Phosphatase 4” (Nature Communications, 2015)
